In PubChem BioAssay (NCATS):
This is one part of the list. These are further read-outs of the screen, such as a control signal, another cell line or another target. No call is given for them. The list favours compounds with an active or inconclusive main result. For part of these data: The note in brackets gives the kind of curve behind each potency; many fits are weak.

Columns and labels:
[1] = qHTS for identification of novel therapeutic agents for treatment of microphthalmiaassociated transcription factor (MiT) renal cell carcinoma (RCC) (AID 1963991); settings: CellTiter-Glo, 48 h; for z-score: stronger effect = lower value
In short: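 Curves over 11 concentrations were fitted to CellTiter-Glo luminescence, scaled between empty wells (0%) and DMSO (100%) viability. Cells were UOK109, UOK124 and UOK145 TFE3-fusion RCC lines at 500/well, exposed 48 hours at 37 C.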

[2] = qHTS Assay for Modulators of Human Peripheral Myelin Protein 22 (PMP22) Expression/Activity (AID 1967); settings: Cell-based PMP22 reporter, dual-color luciferase ratio; measured here: red reporter channel AC50; EF-alpha promoter control reporter in MSC80 mouse Schwann cells
In short: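 Mouse MSC80 Schwann line, Pmp22 promoter–CBG68 reporter, EF-alpha–CBR internal control. 24h compound exposure, 37 °C/5% CO2, DMEM + 10% FBS. Readout: corrected green/red luminescence ratio, normalized to untreated cells; concentration-response curves fitted and classified.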

[3] = Nrf2 qHTS screen for inhibitors: Validation (AID 493153); settings: A549 ARE-Fluc reporter, 18-24 h; AC50: CellTiter-Fluor fluorescence read, measured here: cytotoxicity CellTiter-Fluor AC50; viability change: measured here: cytotoxicity max response
In short: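 Dose-response validation uses reporter A549 cells with firefly luciferase under an antioxidant response element. Compounds stay on cells 18-24 h at 37°C, and luminescence indicates Nrf2-driven transcription.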

[4] = qHTS assay for small molecule antagonists of androgen receptor signaling (AID 588516); settings: AR-UAS-bla HEK293, beta-lactamase ratio, antagonist mode, 16 h; measured here: W460 blue channel fit
In short: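 Cells were plated and incubated 5 h, compounds added in titration, then R1881 (10 nM final) as agonist. After 16 h at 37 C, CCF4 substrate was loaded for 2 h at room temperature and fluorescence measured.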

[5] = qHTS assay for small molecule antagonists of peroxisome proliferator-activated receptor delta signaling (AID 588535); settings: HEK293T PPARd-UAS-bla, beta-lactamase FRET ratio, 18 h; 460 nm channel;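 also: cells co-treated with a PPAR-delta agonist as stimulator during compound exposure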
In short: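 Cell-based beta-lactamase assay in antagonist mode: 4000 HEK293T PPAR-delta-UAS-bla cells per well, 5 hr preincubation then 18 hr compound incubation at 37 C. IC50 obtained by Hill equation fitting.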

[6] = qHTS assay for small molecule antagonists of peroxisome proliferator-activated receptor gamma signaling (AID 588537); settings: HEK293 PPARg-UAS-bla, beta-lactamase ratio, antagonist mode; measured here: W460 blue channel
In short: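 Inhibitors of agonist-stimulated UAS-bla reporter activity were sought in HEK293 cells; rosiglitazone (50 nM) defined full signal and DMSO baseline. Curves fitted to Hill model gave IC50 and efficacy.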

[7] = qHTS assay for small molecule antagonists of vitamin D receptor signaling (AID 588541); settings: HEK293T VDR-UAS-bla, beta-lactamase ratio, antagonist mode; measured here: W460 blue channel (cell viability)
[8] = qHTS assay for small molecule agonists of retinoid X receptor alpha signaling (AID 588544); settings: HEK293T RXRa-UAS-bla, beta-lactamase reporter, 18 h; 530 nm emission
[9] = qHTS assay for small molecule antagonists of retinoid X receptor alpha signaling (AID 588546); settings: HEK293T RXRa-UAS-bla, beta-lactamase ratio, antagonist mode; measured here: W530 green channel, cytotoxicity proxy;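 also: cells stimulated with 9-cis-retinoic acid as agonist; % is scaled to controls: 0 for no effect and ±100 for the full control effect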
In short: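 Beta-lactamase reporter inhibition, read as CCF4 fluorescence ratio (ex 405, em 460/530 nm) after 2 h at RT. HEK293T UAS-bla cells, 2500/well, were stimulated with 9-cis-RA at 500 or 100 nM final alongside test compound for 18 h at 37 C.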

[10] = S16 Schwann cell PMP22 intronic element beta-lactamase assay (AID 624044); settings: S16 rat Schwann cells, PMP22 element beta-lactamase FRET, 24 h; measured here: 460 nm blue channel
In short: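 Rat S16 Schwann cells with beta-Lac driven by a PMP22 intronic element, compound-treated 24 h at 37 °C. LiveBLAzer FRET B/G read: 460 nm normalized to potassium clavulanate vs DMSO; 535 nm FRET as viability; concentration-effect curves classified.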

[11] = qHTS Assay for Inhibitors of PDE-IV (AID 607); settings: HEK293 ACTOne CNG channel cells, membrane potential fluorescence; measured here: parental cell counter-screen
In short: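 Cell-based read-out of cAMP via a modified cyclic nucleotide-gated channel and membrane potential dye (535/590 nm) in HEK293 cells expressing PDE4 endogenously. Compounds tested up to 22.9 uM final; 100 uM RO 20-1724 reference.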

[12] = TFE3-RCC UOK109 viability, measured here: UOK109 Z-AUC
[13] = TFE3-RCC viability, measured here: UOK124 Z-AUC
[14] = TFE3-RCC viability, measured here: UOK124 cell viability
[15] = TFE3-RCC viability, measured here: UOK145 Z-AUC
[16] = TFE3-RCC viability, measured here: UOK145 cell viability

With `COC(=O)N[C@H](C(=O)N1CCC[C@@H]1c1ncc(-c2ccc(-c3ccc(-c4cnc([C@@H]5CCCN5C(=O)[C@@H](NC(=O)OC)C(C)C)[nH]4)cc3)cc2)[nH]1)C(C)C` as the molecule, how does the z-score [1, 12] read?
Its z-score is 0.246.

What about the z-score [1, 13] of the same molecule?
The z-score was 0.26.

And the AC50 [1, 14]?
Its AC50 is 37.2 µM [falling, single point].

What about the z-score [1, 15] of the same molecule?
Its z-score is -0.718.

What about the AC50 [1, 16] of the same molecule?
The AC50 was 37.2 µM [falling, single point].

What does the source list for `CCCCCCOC(=O)N=C(N)c1ccc(NCc2nc3cc(C(=O)N(CCC(=O)OCC)c4ccccn4)ccc3n2C)cc1`?
z-score [1, 12]: 0.554; z-score [1, 13]: 0.378; AC50 [1, 14]: 37.2 µM [falling, partial curve, poor fit]; z-score [1, 15]: 0.555; AC50 [1, 16]: 26.4 µM [falling, partial curve, poor fit]

For `COc1ccc(-c2ccc3c(N4CCOCC4)nc(N4C[C@@H](C)O[C@@H](C)C4)nc3n2)cc1CO`, which z-score [1, 12] is on record?
The z-score was -0.615.

And the z-score [1, 13]?
Its z-score is -0.739.

And the AC50 [1, 14]?
Its AC50 is 1.48 µM [falling, full curve].

And the z-score [1, 15]?
The z-score was -0.668.

And the AC50 [1, 16]?
Its AC50 is 1.87 µM [falling, full curve].

For `CN[C@@H](C)C(=O)N[C@H]1CN(C(=O)CC(C)C)CC[C@H]2CC[C@@H](C(=O)NC(c3ccccc3)c3ccccc3)N2C1=O`, which z-score [1, 12] is on record?
Its z-score is -0.753.

What about the z-score [1, 13] of the same molecule?
Its z-score is -1.04.

What about the AC50 [1, 14] of the same molecule?
The AC50 was 2.96 µM [falling, full curve].

And the z-score [1, 15]?
The z-score was 0.0466.

And the AC50 [1, 16]?
The AC50 was 5.26 µM [falling, full curve].

Which AC50 [2] does the source give for `Cc1ccc(N(CC2=NCCN2)c2cccc(O)c2)cc1` here?
Its AC50 is 67.5 µM [falling, partial curve, poor fit].

And the z-score [1, 12]?
The z-score was 0.535.

And the z-score [1, 13]?
Its z-score is 0.907.

And the AC50 [1, 14]?
Its AC50 is 18.7 µM [falling, partial curve].

And the z-score [1, 15]?
Its z-score is -0.252.

With `CCOC(=O)[C@H](CCc1ccccc1)N[C@@H](C)C(=O)N1[C@@H](C(=O)O)C[C@H]2CCC[C@@H]21` as the molecule, how does the z-score [1, 12] read?
Its z-score is 0.289.

What about the z-score [1, 13] of the same molecule?
Its z-score is -0.625.

What about the AC50 [1, 14] of the same molecule?
The AC50 was 6.62 µM [falling, full curve].

What about the z-score [1, 15] of the same molecule?
Its z-score is 0.202.

What about the AC50 [1, 16] of the same molecule?
Its AC50 is 26.4 µM [falling, partial curve].

What does the source list for `CN(C)CCCC1(c2ccc(F)cc2)OCc2cc(C#N)ccc21` (centres undefined)?
AC50 [2]: 84.9 µM [falling, single point]; z-score [1, 12]: 0.145; z-score [1, 13]: 0.46; z-score [1, 15]: -0.0142; AC50 [1, 16]: 33.2 µM [falling, single point]

With `CN(C)CCCN=c1c2ccccc2n(C)c2[nH]c(=O)n(C)c(=O)c12` as the molecule, how does the z-score [1, 12] read?
The z-score was -0.502.

And the z-score [1, 13]?
Its z-score is -0.105.

And the AC50 [1, 14]?
Its AC50 is 9.35 µM [falling, full curve].

What about the z-score [1, 15] of the same molecule?
The z-score was -1.38.

And the AC50 [1, 16]?
Its AC50 is 5.9 µM [falling, partial curve].

Which viability change [3] does the source give for `C[C@H]1O[C@@H](n2cc(F)c(=O)[nH]c2=O)[C@H](O)[C@H]1O` here?
The viability change was -1.68%.

What about the z-score [1, 12] of the same molecule?
The z-score was 0.712.

What about the z-score [1, 13] of the same molecule?
The z-score was 1.03.

What about the z-score [1, 15] of the same molecule?
The z-score was 0.357.

What about the AC50 [1, 16] of the same molecule?
The AC50 was 20.9 µM [falling, partial curve, poor fit].

Which z-score [1, 12] does the source give for `CN[C@H]1[C@@H](O)[C@@H]2O[C@@H]3O[C@H](C)CC(=O)[C@]3(O)O[C@@H]2[C@@H](NC)[C@H]1O` here?
The z-score was -1.58.

And the z-score [1, 13]?
Its z-score is -0.0855.

And the AC50 [1, 14]?
The AC50 was 18.7 µM [falling, partial curve].

What about the z-score [1, 15] of the same molecule?
Its z-score is -0.916.

And the AC50 [1, 16]?
Its AC50 is 1.18 µM [falling, full curve].

With `Clc1ccc2ncc(-c3cccc(NC4CNC4)n3)n2c1` as the molecule, how does the z-score [1, 12] read?
Its z-score is 0.354.

And the z-score [1, 13]?
The z-score was -0.281.

What about the AC50 [1, 14] of the same molecule?
The AC50 was 23.5 µM [falling, partial curve, poor fit].

And the z-score [1, 15]?
The z-score was -0.0618.

What about the AC50 [1, 16] of the same molecule?
Its AC50 is 18.7 µM [falling, partial curve].

With `CC(C=CC1=C(C)CCCC1(C)C)=CC=CC(C)=CC(=O)Nc1ccc(O)cc1` as the molecule, how does the AC50 [4] read?
The AC50 was 39.8 µM [falling, partial curve].

And the max response [5]?
The max response was -45.8%.

And the AC50 [6]?
Its AC50 is 39.8 µM [falling, partial curve, poor fit].

And the AC50 [7]?
The AC50 was 28.2 µM [falling, partial curve].

And the max response [8]?
The max response was -52.4%.

What about the max response [9] of the same molecule?
The max response was -50.2%.

What about the z-score [1, 12] of the same molecule?
Its z-score is -0.437.

What about the z-score [1, 13] of the same molecule?
Its z-score is -0.138.

And the AC50 [1, 14]?
Its AC50 is 34 µM [falling, partial curve].

And the z-score [1, 15]?
Its z-score is -0.0176.

And the AC50 [1, 16]?
Its AC50 is 54 µM [falling, partial curve].

For `COc1c(C)c2c(c(O)c1CC=C(C)CCC(=O)OCCN1CCOCC1)C(=O)OC2`, which AC50 [10] is on record?
Its AC50 is 2.82 µM [falling, full curve].

And the z-score [1, 12]?
Its z-score is 0.291.

And the z-score [1, 13]?
Its z-score is 0.522.

What about the AC50 [1, 14] of the same molecule?
Its AC50 is 10.5 µM [falling, partial curve, poor fit].

What about the z-score [1, 15] of the same molecule?
The z-score was -0.0136.

What about the AC50 [1, 16] of the same molecule?
Its AC50 is 1.32 µM [falling, full curve].

With `O=S(=O)(O)c1ccc2cc(N=Nc3cc(S(=O)(=O)O)c4cccnc4c3O)ccc2c1` as the molecule, how does the AC50 [11] read?
The AC50 was 0.000398 µM [falling, full curve, poor fit].

What about the z-score [1, 12] of the same molecule?
The z-score was 0.138.

And the z-score [1, 13]?
Its z-score is 0.648.

And the AC50 [1, 14]?
The AC50 was 14.8 µM [falling, partial curve, poor fit].

And the z-score [1, 15]?
Its z-score is 0.638.

What about the AC50 [1, 16] of the same molecule?
Its AC50 is 18.7 µM [falling, partial curve, poor fit].
